PubChem BioAssay AID1671195 | Yale University, 2021

Aim: 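Genes whose knockdown alters LDL uptake in liver cancer cells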 (primary screen)
System: human Huh7 hepatoma cells
Knock-down reagent: siRNA pool against human genes, 18 nM
Duration: about 2 to 2.5 days of knockdown, then 8 h LDL uptake
Challenge: DiI-labelled LDL at 30 µg/ml for 8 h, in lipoprotein-deficient serum medium
Read-out: 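Fluorescent LDL signal imaged in cells, scaled to the plate median, robust z-score for each replicate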
Scale: robust z-score: higher = more LDL uptake after knockdown
Active means: 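Active when two or more replicates show a robust z-score above 2 or below -2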
The deposit covers about 22,000 reagents; this is a part drawn at random. Of all reagents, about 1,510 (6.9%) got an active call. 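Active includes knockdowns raising or lowering LDL uptake; positive z-scores mean more uptake, negative mean less.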 Reagents against one gene are numbered here.

| gene symbol | reagent no. | robust z-score, replicate 1 | robust z-score, replicate 2 | robust z-score, replicate 3 | call |
| --- | --- | --- | --- | --- | --- |
| TUSC7 (GeneID 285194) | 1 | 2.37 | 2.75 | 2.03 | active |
| TP53 (GeneID 7157) | 1 | -0.721 | -0.827 | -1.07 | inactive |
| DGUOK (GeneID 1716) | 1 | 3.05 | 0.894 | 2.44 | active |
| LOC441789 (retired record) (GeneID 441789) | 1 | 1.59 | 2.15 | 2.66 | active |
| DDC (GeneID 1644) | 1 | -1.62 | -0.947 | -1.62 | inactive |
| FRMD6 (GeneID 122786) | 1 | 0.836 | 0.919 | 0.304 | inactive |
| RAB5A (GeneID 5868) | 1 | -1.27 | 0.335 | -1.41 | inactive |
| LOC389767 (retired record) (GeneID 389767) | 1 | -0.00634 | 0.0265 | -0.0874 | inactive |
| PSMB9 (GeneID 5698) | 1 | -0.209 | -0.458 | -0.0556 | inactive |
| ZNF585A (GeneID 199704) | 1 | 3.01 | 2.66 | 1.97 | active |
| CFAP418 (GeneID 157657) | 1 | 0.0523 | 0.0686 | 0.161 | inactive |
| KIAA1958 (GeneID 158405) | 1 | 0.191 | -0.109 | 0.0424 | inactive |
| TFR2 (GeneID 7036) | 1 | 1.77 | 1.52 | 1.63 | inactive |
| LOC401606 (retired record) (GeneID 401606) | 1 | -1.12 | -1.2 | -1.17 | inactive |
| GNAI2P2 (GeneID 401646) | 1 | -0.144 | 0.13 | 0.515 | inactive |
| SERPINB2 (GeneID 5055) | 1 | 0.249 | -0.533 | -0.0147 | inactive |
| LILRA1 (GeneID 11024) | 1 | 0.371 | -0.962 | 0.211 | inactive |
| SESN1 (GeneID 27244) | 1 | 1.09 | -1 | 1.49 | inactive |
| CYP2C19 (GeneID 1557) | 1 | 0.824 | 0.922 | 0.867 | inactive |
| IGKV1ORY-1 (GeneID 439957) | 1 | -0.196 | -0.185 | -0.296 | inactive |
| LOC389638 (retired record) (GeneID 389638) | 1 | 1.36 | 0.817 | 0.636 | inactive |
| MRPL27 (GeneID 51264) | 1 | -0.809 | -0.0646 | -0.177 | inactive |
| PITPNM1 (GeneID 9600) | 1 | 1.07 | 0.216 | 0.0869 | inactive |
| PABPN1L (GeneID 390748) | 1 | 1.04 | 0.868 | 1.47 | inactive |
| CXCR5 (GeneID 643) | 1 | 1.21 | 0.832 | 0.742 | inactive |
| TMEM200B (GeneID 399474) | 1 | -0.195 | -0.0711 | -0.401 | inactive |
| SPDYA (GeneID 245711) | 1 | -0.675 | 1.32 | 0.42 | inactive |
| BMP7 (GeneID 655) | 1 | -0.856 | -0.569 | -1.29 | inactive |
| CSDE1 (GeneID 7812) | 1 | 2.19 | 3.55 | 2.47 | active |
| ABCA15P (GeneID 400508) | 1 | -0.000289 | -0.383 | -0.561 | inactive |
| FMO5 (GeneID 2330) | 1 | -1.59 | -0.901 | -1.33 | inactive |
| BCL2 (GeneID 596) | 1 | 0.168 | -0.229 | -0.885 | inactive |
| GLRX5 (GeneID 51218) | 1 | 1.04 | 1.36 | 0.617 | inactive |
| HOXA4 (GeneID 3201) | 1 | -0.701 | -0.0672 | 0.01 | inactive |
| CLEC14A (GeneID 161198) | 1 | 0.321 | 0.101 | 0.514 | inactive |
| SLC25A6 (GeneID 293) | 1 | 2.88 | 3.24 | 0.824 | active |
| RRM2 (GeneID 6241) | 1 | 0.0449 | -0.292 | -0.187 | inactive |
| RRM2 (GeneID 6241) | 2 | -0.801 | -1.47 | -1.32 | inactive |
| ERVFRD-1 (GeneID 405754) | 1 | 1.41 | 1.6 | 2.69 | inactive |
| PLXNA2 (GeneID 5362) | 1 | -0.22 | -0.133 | -0.197 | inactive |
| DCSTAMP (GeneID 81501) | 1 | 0.672 | -0.193 | 0.749 | inactive |
| SLC25A29 (GeneID 123096) | 1 | -0.88 | -1.36 | -0.783 | inactive |
| NBPF7P (GeneID 343505) | 1 | -0.183 | 0.556 | 0.33 | inactive |
| CYP2A6 (GeneID 1548) | 1 | -1.2 | -1.14 | -0.933 | inactive |
| TRAF3 (GeneID 7187) | 1 | 0.271 | -1.06 | -0.924 | inactive |
| EHHADH-AS1 (GeneID 339926) | 1 | -0.414 | -0.467 | -0.423 | inactive |
| PITPNC1 (GeneID 26207) | 1 | -0.445 | -1.75 | -0.917 | inactive |
| IL17REL (GeneID 400935) | 1 | -1.41 | -1.43 | -1.14 | inactive |
| IFFO1 (GeneID 25900) | 1 | -0.869 | -0.0761 | 0.922 | inactive |
| POLR2G (GeneID 5436) | 1 | -1.27 | -1.18 | -1.32 | inactive |
| TSC22D1 (GeneID 8848) | 1 | -1.48 | -1.37 | -1.5 | inactive |
| PKD1L2 (GeneID 114780) | 1 | 2.53 | 2.74 | 2.44 | active |
| CP (GeneID 1356) | 1 | 0.744 | 0.641 | 0.587 | inactive |
| IRF9 (GeneID 10379) | 1 | 0.802 | 0.147 | -0.697 | inactive |
| DDX10 (GeneID 1662) | 1 | 0.533 | -0.329 | 0.207 | inactive |
| FLOT1 (GeneID 10211) | 1 | -2.05 | -2.09 | -1.87 | active |
| FLJ44076 (retired record) (GeneID 401080) | 1 | -1.08 | -1.25 | -1.04 | inactive |
| AGO3 (GeneID 192669) | 1 | -0.946 | -1.18 | -1.56 | inactive |
| ZMIZ1 (GeneID 57178) | 1 | -1.21 | -0.247 | 0.195 | inactive |
| RBPMS2 (GeneID 348093) | 1 | -0.629 | -0.869 | -0.491 | inactive |
| RND1 (GeneID 27289) | 1 | 2.11 | -0.0757 | 0.957 | inactive |
| KRT9 (GeneID 3857) | 1 | -0.764 | -0.738 | -0.53 | inactive |
| VCAM1 (GeneID 7412) | 1 | -1.92 | -1.76 | -1.46 | inactive |
| CLEC4G (GeneID 339390) | 1 | -1.1 | -1.08 | -1.4 | inactive |
| FCGR2A (GeneID 2212) | 1 | 0.00642 | 0.243 | -0.0633 | inactive |
| MAP3K2 (GeneID 10746) | 1 | -0.836 | -1.11 | -1.69 | inactive |
| DHX16 (GeneID 8449) | 1 | 0.281 | -0.383 | 0.767 | inactive |
| RUFY3 (GeneID 22902) | 1 | 3.11 | 2.42 | 2.45 | active |

Reagents listed so far marked active (9):
| gene symbol | reagent no. | robust z-score, replicate 1 | robust z-score, replicate 2 | robust z-score, replicate 3 | call |
| --- | --- | --- | --- | --- | --- |
| TUSC7 (GeneID 285194) | 1 | 2.37 | 2.75 | 2.03 | active |
| DGUOK (GeneID 1716) | 1 | 3.05 | 0.894 | 2.44 | active |
| LOC441789 (retired record) (GeneID 441789) | 1 | 1.59 | 2.15 | 2.66 | active |
| ZNF585A (GeneID 199704) | 1 | 3.01 | 2.66 | 1.97 | active |
| CSDE1 (GeneID 7812) | 1 | 2.19 | 3.55 | 2.47 | active |
| SLC25A6 (GeneID 293) | 1 | 2.88 | 3.24 | 0.824 | active |
| PKD1L2 (GeneID 114780) | 1 | 2.53 | 2.74 | 2.44 | active |
| FLOT1 (GeneID 10211) | 1 | -2.05 | -2.09 | -1.87 | active |
| RUFY3 (GeneID 22902) | 1 | 3.11 | 2.42 | 2.45 | active |
